Measurements reported in PubChem BioAssay AID1259308 (NCATS, 2017).

Screen: 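Genes whose loss raises luciferase production in HEK293 cells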 (primary screen)
Cells: human HEK293 embryonic kidney cells stably expressing firefly luciferase (HEK-CMV-Luc2-Hygro)
Knock-down reagent: single siRNA against human genes, 0.8 pmol siRNA per well
Duration: 72 h
Measurement: 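Luciferase light (ONE-Glo) measured on one replicate plate set and viability (CellTiter-Glo) on the other, scaled to a negative control siRNA, with robust z-scores and luciferase per cell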
Direction: total luciferase, z-score: higher = more reporter protein produced
Hit rule: 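An siRNA counts as active if its total luciferase robust z-score exceeds 3; genes with two or more such siRNAs out of three were retested with fresh siRNAs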
Calls: active = raised luciferase; inactive = no rise
In all, the deposit lists about 59,000 reagents; this is an unselected part. Of all reagents, about 1,510 (2.6%) got an active call. 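Calls use total luciferase alone and ignore viability, so some active siRNAs may act by altering cell number.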 The numbers tell different reagents against one gene apart. Further read-outs or replicates are left out here.

TMEM37 #1: total luciferase, z-score = 0.759; outcome = inactive
TMEM37 #2: total luciferase, z-score = 0.299; outcome = inactive
TMEM37 #3: total luciferase, z-score = -1.39; outcome = inactive
XKR8 #1: total luciferase, z-score = 1.45; outcome = inactive
XKR8 #2: total luciferase, z-score = 2.55; outcome = inactive
XKR8 #3: total luciferase, z-score = 0.33; outcome = inactive
KCNA6 #1: total luciferase, z-score = -0.917; outcome = inactive
KCNA6 #2: total luciferase, z-score = 1.46; outcome = inactive
KCNA6 #3: total luciferase, z-score = -0.281; outcome = inactive
TNFRSF6B #1: total luciferase, z-score = 0.505; outcome = inactive
TNFRSF6B #2: total luciferase, z-score = 1.04; outcome = inactive
TNFRSF6B #3: total luciferase, z-score = -0.939; outcome = inactive
DEFB126 #1: total luciferase, z-score = 1.03; outcome = inactive
DEFB126 #2: total luciferase, z-score = -1.58; outcome = inactive
DEFB126 #3: total luciferase, z-score = 0.381; outcome = inactive
ZNF80 #1: total luciferase, z-score = -0.0898; outcome = inactive
ZNF80 #2: total luciferase, z-score = -1.02; outcome = inactive
ZNF80 #3: total luciferase, z-score = -0.275; outcome = inactive
MAP2K3 #1: total luciferase, z-score = 0.537; outcome = inactive
MAP2K3 #2: total luciferase, z-score = -0.381; outcome = inactive
MAP2K3 #3: total luciferase, z-score = 0.143; outcome = inactive
MGAT3 #1: total luciferase, z-score = -0.311; outcome = inactive
MGAT3 #2: total luciferase, z-score = -0.0741; outcome = inactive
MGAT3 #3: total luciferase, z-score = -0.325; outcome = inactive
ATL3 #1: total luciferase, z-score = 0.443; outcome = inactive
ATL3 #2: total luciferase, z-score = -0.0251; outcome = inactive
ATL3 #3: total luciferase, z-score = -0.68; outcome = inactive
KCNA4 #1: total luciferase, z-score = -0.659; outcome = inactive
KCNA4 #2: total luciferase, z-score = -0.0858; outcome = inactive
KCNA4 #3: total luciferase, z-score = 1.88; outcome = inactive
SNX29 #1: total luciferase, z-score = -0.751; outcome = inactive
SNX29 #2: total luciferase, z-score = 0.763; outcome = inactive
SNX29 #3: total luciferase, z-score = 0.283; outcome = inactive
SNX29 #4: total luciferase, z-score = -0.497; outcome = inactive
SNX29 #5: total luciferase, z-score = -1.03; outcome = inactive
SNX29 #6: total luciferase, z-score = 0.012; outcome = inactive

As entered above.
KCNA6 #1, outcome = inactive
Under “outcome”, MGAT3 #2 shows inactive
